Substitutions are numbered along the chain they refer to. Results are given in words; binding and its absence hold for the method and conditions named. Some entries that bind do so weakly or less than the wild type.
B1: VV02-1LP-263 (Fc fusion, not shown: a dimerising Fc or GST; small tags and cut ends)
VHH: EVQLVESGGGLVQPGGSLRLSCAASGFTFSSSAMSWARQTPGKGFEWVSGIYSDGSTYYTDSVKDRFTISRDNAKNTVYLQMNSLKPEDTAVYYCATWGTLRFGVWAEYDHWGQGTQVTVSS
B2: VV02-2LP-13 (Fc fusion, not shown: a dimerising Fc or GST; small tags and cut ends)
VHH: AVQLVESGGGLVQPGGSLRLSCAASGFTFSSYAMSWARQVPGKGFEWVAYIYSDGSTYYADSVKGRFTISRDNAKDTVYLHMNSLKFEDMAVYYCATWRSQQVGRWDEYDHWGQGTQVTVSS
B3: VV02-3LP-142 (Fc fusion, not shown: a dimerising Fc or GST; small tags and cut ends)
VHH: B2 VHH with P14R, R19K, A23V, A24G, T28D, S31D, Y32H
B4: VV02-1SP (1)-55 (Fc fusion, not shown: a dimerising Fc or GST; small tags and cut ends)
VHH: B2 VHH with A1E, Y32S, H111Y, T116I
B5: VV02-3LP-83 (Fc fusion, not shown: a dimerising Fc or GST; small tags and cut ends)
VHH: B2 VHH with A1E, Q3D, S30R
B6: VV02-1SP (1)-358 (Fc fusion, not shown: a dimerising Fc or GST; small tags and cut ends)
VHH: B2 VHH with A1E, R19M, L20I, Y32S, E108K, H111Y
B7: VV02-1SP (1)-168 (Fc fusion, not shown: a dimerising Fc or GST; small tags and cut ends)
VHH: QVQLVESGGGLVQPGGSLRLSCAASGFTFSSYAMSWARQAPGKDFEWVSYIYSDGNTYYADSVKGRFTISRDNAKNTVYLQMNSLKPEDTAVYYCATWHTLRVGVWDEYDYWGQGTQVTVSS
B8: VV02-1LP-422 (Fc fusion, not shown: a dimerising Fc or GST; small tags and cut ends)
VHH: QLQLVESGGGLVQPGGSLRLSCAASGFTLADYAIGWFRQAPGKEREGVLCISSSGDVTIYADSVKGRFTISRDNAKNTVYLQMNSLKPEDTAVYYCVAPRICSTYSSDDYWGQGTQVTVSS
B9: VV02-1LP-238 (Fc fusion, not shown: a dimerising Fc or GST; small tags and cut ends)
VHH: B8 VHH with L2V, P14A, S17A, A30D, D31Y, Y32S
B10: VV02-1LP-317 (Fc fusion, not shown: a dimerising Fc or GST; small tags and cut ends)
VHH: EVDLVESGGGLVQPGGSLRLSCAASGFTFSRSAMSWARQAPGKGFEWVSGIYSGGSTYYVDSVEGRFTISRDNAKNTVYLQMNSLKPEDTAVYYCATWGSQQIGVWHEDDYWGQGTQVTVSS
B11: VV02-1SP (1)-73 (Fc fusion, not shown: a dimerising Fc or GST; small tags and cut ends)
VHH: EVDLVESGGGLVQPGGSLRLSCAVSGFTFSNSAMSWARQAPGKEFEWVSSIYSDGKTYYVDSVKGRFTISRDNAKNTVYLQMSSLKPEDTAVYYCATWKTLRVGVWDESDYWGQGTQVTVSS
B12: VV02-1LP-263 huNb_1_2 (Fc fusion, not shown: a dimerising Fc or GST)
VHH: B1 VHH with V5L, T40A, F45L, D54G, D61E, A74S, Q117L
B13: VV02-1LP-263 huNb_3_3 (Fc fusion, not shown: a dimerising Fc or GST)
VHH: B1 VHH with E1Q, T40A, D54G, D61E, T77S
B14: VV02-1LP-263 huNb_1_3 (Fc fusion, not shown: a dimerising Fc or GST)
VHH: B1 VHH with V5L, D54G, D61E, A74S
B15: VV02-1LP-263 huNb_2_3 (Fc fusion, not shown: a dimerising Fc or GST)
VHH: B1 VHH with T40A, D54G, D61E, Q117L
B16: VV02-1LP-263 huNb_2_2 (Fc fusion, not shown: a dimerising Fc or GST)
VHH: B1 VHH with T40A, F45L, D54G, D61E, V78L, K86R, Q117L
B17: VV02-1LP-263 huNb_3_2 (Fc fusion, not shown: a dimerising Fc or GST)
VHH: B1 VHH with E1Q, Q13K, T40A, D54G, D61E, T77S, V78L, K86R

Chains of the proteins cited; added tags and fusions are not shown. Lines headed by an entry give the natural chain unless they say otherwise; changes in a name come on top. A line that says so, or that is headed by a name, gives the form on record, which may keep a tag or linker. Residues count along the entry.
UniProt A9YYE7: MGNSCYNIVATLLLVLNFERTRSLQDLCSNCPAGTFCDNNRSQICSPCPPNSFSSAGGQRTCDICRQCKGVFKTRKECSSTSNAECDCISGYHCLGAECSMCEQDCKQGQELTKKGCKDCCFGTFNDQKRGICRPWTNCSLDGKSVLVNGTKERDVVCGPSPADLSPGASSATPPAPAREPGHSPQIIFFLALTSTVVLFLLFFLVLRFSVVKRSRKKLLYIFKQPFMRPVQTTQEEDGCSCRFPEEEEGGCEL
cynomolgus 4-1BB overexpressed on CHO-K1 cells: residues 24-254 of A9YYE7
His-tagged cynomolgus 4-1BB protein: residues 24-186 of A9YYE7

The binders below were run against His-tagged cynomolgus 4-1BB protein (cynomolgus) (UniProt A9YYE7) (assay: ELISA (FIG. 1A-B)).

binding | Binder
binds | B1
binds | B2
binds | B3
binds | B4
binds | B5
binds | B6
binds | B7
binds | B8
binds | B9
binds | B10
binds | B11

These binders were tested against cynomolgus 4-1BB overexpressed on CHO-K1 cells (cynomolgus) (UniProt A9YYE7) (assay: flow cytometry on CHO-K1 cells overexpressing 4-1BB).

binding | Binder
binds | B12
binds | B13
binds | B14
binds | B15
binds | B16
binds | B17

Each binder was assayed against cynomolgus 4-1BB overexpressed on CHO-K1 cells (cynomolgus) (UniProt A9YYE7) (assay: flow cytometry (FIG. 4A-B)).

binding | Binder
binds | B12
binds | B13
binds | B14
binds | B15
binds | B16
binds | B17

Source: patent US20240383993A1
